Drawing on patent publication US20100150879A1, this text covers binding for one molecule.

The target in experiment [1] is T1, p120-catenin (p120ctn), endogenous (human) (UniProt O60716).
T1 sequence (looked up): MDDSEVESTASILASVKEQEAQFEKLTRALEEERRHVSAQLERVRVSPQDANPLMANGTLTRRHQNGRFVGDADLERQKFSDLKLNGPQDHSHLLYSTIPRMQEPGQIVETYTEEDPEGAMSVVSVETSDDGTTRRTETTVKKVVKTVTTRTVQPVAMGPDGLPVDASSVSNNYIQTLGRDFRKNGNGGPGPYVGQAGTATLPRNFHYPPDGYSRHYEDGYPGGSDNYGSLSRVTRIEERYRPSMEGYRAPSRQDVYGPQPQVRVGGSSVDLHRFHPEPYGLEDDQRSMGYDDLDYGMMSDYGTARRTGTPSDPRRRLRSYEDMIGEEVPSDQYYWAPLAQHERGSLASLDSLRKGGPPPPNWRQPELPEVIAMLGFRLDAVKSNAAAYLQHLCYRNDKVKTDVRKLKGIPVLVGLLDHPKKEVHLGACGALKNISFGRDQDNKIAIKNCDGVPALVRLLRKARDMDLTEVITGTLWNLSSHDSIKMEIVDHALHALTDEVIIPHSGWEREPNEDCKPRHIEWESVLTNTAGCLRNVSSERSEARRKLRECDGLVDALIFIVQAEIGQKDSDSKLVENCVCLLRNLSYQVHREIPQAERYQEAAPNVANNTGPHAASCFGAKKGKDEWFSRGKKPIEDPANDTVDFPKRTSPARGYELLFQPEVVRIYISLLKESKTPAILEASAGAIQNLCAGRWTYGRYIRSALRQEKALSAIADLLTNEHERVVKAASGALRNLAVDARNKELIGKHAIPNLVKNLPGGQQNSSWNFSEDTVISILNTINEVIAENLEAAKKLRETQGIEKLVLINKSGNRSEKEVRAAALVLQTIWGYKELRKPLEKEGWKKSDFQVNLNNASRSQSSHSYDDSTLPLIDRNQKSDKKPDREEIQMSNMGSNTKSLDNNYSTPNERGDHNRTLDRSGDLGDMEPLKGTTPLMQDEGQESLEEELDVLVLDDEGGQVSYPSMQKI
Briefly: GST pull-down.

The target of experiment [2] is T1, p120-catenin (p120ctn), endogenous (human). Briefly: far western, GST fusion protein as bait (2.0 µg/ml) on blotted immunoprecipitates from hdMVEC.

No constants are given. Whether binding was seen depends on the method and setting. Some results given as binding are weak or reduced against the parent protein; the word gives no strength. Where a sequence is shown, tags or fusion partners need not be part of it.

With SDLFKTKMTLSLPAPAIRKEILSPVDIIDRNNHHNMM (peptide, not shown: a dimerising Fc or GST) [GST-LPP3-C-cyto fusion protein (GST fused to the C-terminal cytoplasmic domain of LPP3)], the binding result in experiment [1] and in experiment [2] was “binds” in each case.
